This sample is rich in variants without activity.
Tests used:
biotinyl-Val-oxazolone = experiment: self-aminoacylation, catalytic enhancement (BVO) (fold over background); higher = more active; k-Seq, kA / k0A0; sequences stand for … in GGGAAUGGAUCCACAUCUACGAAUUC…UUCACUGCAGACUUGACGAAGCUG
Summary of the method: (§1)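 Working in 50 μL HEPES/NaCl/KCl/MgCl2/CaCl2 buffer with 5% acetonitrile at pH 6.9–7.0, mutagenized RNA pools (0.43 μM; 21-nt variable region) were reacted with 2–1250 μM of each biotinyl-aminoacyl-oxazolone for 90 minutes at room temperature. Streptavidin capture followed, with quantification by triplicate qPCR and Illumina sequencing. Catalytic enhancement is reported as median kA over the uncatalyzed rate, the low-activity peak of a bimodal Gaussian fit to the data.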

biotinyl-Ile-oxazolone = experiment: self-aminoacylation, catalytic enhancement (BIO) (fold over background); higher = more active; k-Seq, kA / k0A0; sequences stand for … in GGGAAUGGAUCCACAUCUACGAAUUC…UUCACUGCAGACUUGACGAAGCUG
Summary of the method: as §1

biotinyl-Trp-oxazolone = experiment: self-aminoacylation, catalytic enhancement (BWO) (fold over background); higher = more active; k-Seq, kA / k0A0; sequences stand for … in GGGAAUGGAUCCACAUCUACGAAUUC…UUCACUGCAGACUUGACGAAGCUG
Summary of the method: as §1

biotinyl-Met-oxazolone = experiment: self-aminoacylation, catalytic enhancement (BMO) (fold over background); higher = more active; k-Seq, kA / k0A0; sequences stand for … in GGGAAUGGAUCCACAUCUACGAAUUC…UUCACUGCAGACUUGACGAAGCUG
Summary of the method: as §1

biotinyl-Phe-oxazolone = experiment: self-aminoacylation, catalytic enhancement (BFO) (fold over background); higher = more active; k-Seq, kA / k0A0; sequences stand for … in GGGAAUGGAUCCACAUCUACGAAUUC…UUCACUGCAGACUUGACGAAGCUG
Summary of the method: as §1

biotinyl-Leu-oxazolone = experiment: self-aminoacylation, catalytic enhancement (BLO) (fold over background); higher = more active; k-Seq, kA / k0A0; sequences stand for … in GGGAAUGGAUCCACAUCUACGAAUUC…UUCACUGCAGACUUGACGAAGCUG
Summary of the method: as §1

Sequence | self-aminoacylation (biotinyl-Val-oxazolone) | self-aminoacylation (biotinyl-Ile-oxazolone) | self-aminoacylation (biotinyl-Trp-oxazolone) | self-aminoacylation (biotinyl-Met-oxazolone) | self-aminoacylation (biotinyl-Phe-oxazolone) | self-aminoacylation (biotinyl-Leu-oxazolone)
AUUACCCUGUUCAUCCAGUGA [Fam2.1 aminoacylation ribozyme variant] | 3.52 | 3.76 | 8.43 | 5.95 | 23 | 5.85
AAUCACCUAGGUCAACGGGUG [Fam2.2 aminoacylation ribozyme variant] | 2.77 | 2.29 | 3.32 | 2.91 | 10.3 | 3.39
AAGUAUCCUAAUAGUCGCAAG [Fam3.1 aminoacylation ribozyme variant] | 1.03 | 1.29 | 0.801 | 0.975 | 1.36 | 1.04
CCAAACUUCAAGCUAUCGGUC [Fam1B.1 aminoacylation ribozyme variant] | 1.26 | 1.24 | 0.978 | 0.885 | 0.83 | 1.02
CCACGCUUCAAGCCAUCGGUC [Fam1B.1 aminoacylation ribozyme variant] | 1.67 | 1.05 | 0.848 | 0.915 | 0.912 | 1.31
AUUACCCUACUCAUCGAGUGA [Fam2.1 aminoacylation ribozyme variant] | 3.19 | 3.24 | 9 | 7.19 | 35.1 | 6.54
CUACUUCAAACAAUCGGCCUG [Fam1A.1 aminoacylation ribozyme variant] | 1.78 | 1.69 | 48.1 | 1.87 | 85.3 | 2.86
CUACUUCAAACGCUCGGUCUG [Fam1A.1 aminoacylation ribozyme variant] | 0.828 | 0.741 | 0.637 | 0.592 | 0.793 | 1.09
CUACUUCAAACAUUCGGUCAG [Fam1A.1 aminoacylation ribozyme variant] | 0.992 | 0.901 | 0.688 | 0.886 | 0.674 | 0.861
ACUCACCUAGGUAAUCGGGUG [Fam2.2 aminoacylation ribozyme variant] | 2.85 | 3.22 | 4.3 | 4.2 | 23.9 | 3.66
CUAAUACAAACAAUCGGUCUG [Fam1A.1 aminoacylation ribozyme variant] | 0.682 | 0.676 | 0.678 | 0.674 | 0.757 | 0.477
CUGUUUGCUAAUAGUCGCAAG [Fam3.1 aminoacylation ribozyme variant] | 0.849 | 0.821 | 1.37 | 0.852 | 1.71 | 0.862
AUUCACCUAAGUCACCGGGUG [Fam2.2 aminoacylation ribozyme variant] | 4.88 | 4.72 | 5.67 | 7.03 | 53.8 | 8.36
CUACUUCAUACAUUCGGUCUG [Fam1A.1 aminoacylation ribozyme variant] | 0.965 | 0.955 | 0.96 | 0.894 | 1.05 | 1.04
CCACACUUCACGAAAUCGGUC [Fam1B.1 aminoacylation ribozyme variant] | 1.09 | 0.987 | 1.02 | 1.07 | 0.814 | 1.16
CCGCACUUCAAGCAAUCGGUA [Fam1B.1 aminoacylation ribozyme variant] | 1.64 | 1.09 | 2.16 | 1.45 | 1.71 | 1.41
CUACUUCAAUCAAUUGGUCUG [Fam1A.1 aminoacylation ribozyme variant] | 0.744 | 0.821 | 0.748 | 0.664 | 0.84 | 0.625
AAGUUUGCUAUUAGUCGGAAG [Fam3.1 aminoacylation ribozyme variant] | 0.974 | 0.992 | 1.66 | 1.2 | 0.956 | 0.853
CCUCACUUCAAGAAAUCGGUC [Fam1B.1 aminoacylation ribozyme variant] | 0.909 | 1.06 | 7.71 | 1.04 | 11 | 1.32
AUUCACCUAGGUCCUCGGGAG [Fam2.2 aminoacylation ribozyme variant] | 1.38 | 1.29 | 1.29 | 0.981 | 2.83 | 2.11
CCACACUUCAAGCUGUCGGUC [Fam1B.1 aminoacylation ribozyme variant] | 1.2 | 0.945 | 0.933 | 0.906 | 0.535 | 0.96

Sequence | self-aminoacylation (biotinyl-Val-oxazolone) | self-aminoacylation (biotinyl-Ile-oxazolone) | self-aminoacylation (biotinyl-Trp-oxazolone) | self-aminoacylation (biotinyl-Met-oxazolone) | self-aminoacylation (biotinyl-Phe-oxazolone) | self-aminoacylation (biotinyl-Leu-oxazolone)
AUUACCCUGGUUAUCGGGUGA [Fam2.1 aminoacylation ribozyme variant] | 6.66 | 5.12 | 14.8 | 12.8 | 94.3 | 13.6
CUACUUCAAACAAGCGGUCUU [Fam1A.1 aminoacylation ribozyme variant] | 1.02 | 1.06 | 0.716 | 0.989 | 0.824 | 0.996
AUGCACCUAAGUCAUCGGGUG [Fam2.2 aminoacylation ribozyme variant] | 4.84 | 5.66 | 8.67 | 8.76 | 58.2 | 10.5
CCACACCUCAAGCAAACGGUC [Fam1B.1 aminoacylation ribozyme variant] | 0.853 | 0.838 | 0.884 | 0.655 | 1.56 | 0.804
CCACACUUCAAGCAAUUGGUA [Fam1B.1 aminoacylation ribozyme variant] | 0.964 | 1.25 | 0.594 | 0.699 | 1.24 | 0.901
AAUACCCUGGUCAUCGACUGA [Fam2.1 aminoacylation ribozyme variant] | 0.741 | 0.739 | 1.06 | 0.908 | 0.32 | 0.662
AUUCACCCAGGUCAUCGAGUG [Fam2.2 aminoacylation ribozyme variant] | 1.39 | 1.27 | 1.39 | 1.45 | 1 | 1.43
CUACUACAGACAAUCGGUCUG [Fam1A.1 aminoacylation ribozyme variant] | 0.796 | 0.801 | 0.482 | 0.694 | 0.614 | 1.05
AAGUUUGCUCAUAGUCGCGAG [Fam3.1 aminoacylation ribozyme variant] | 1.09 | 1.2 | 1.34 | 1.32 | 1.02 | 1.15
CUACUUCCAACAAUCGUUCUG [Fam1A.1 aminoacylation ribozyme variant] | 0.705 | 0.566 | 0.36 | 0.547 | 0.778 | 0.47
AUUACCCUGGUCAUAGAGUGC [Fam2.1 aminoacylation ribozyme variant] | 1.09 | 0.877 | 0.631 | 0.989 | 0.744 | 0.969
AUUCCCCUAGGUCCUCGGGUG [Fam2.2 aminoacylation ribozyme variant] | 17.1 | 19.6 | 24.6 | 26.9 | 241 | 37.9
AUUACGCUGGUCCUCGAGUGA [Fam2.1 aminoacylation ribozyme variant] | 4.14 | 4.15 | 6.54 | 6.22 | 44.8 | 6.05
CCACACUGCAAGCAAUCUGUC [Fam1B.1 aminoacylation ribozyme variant] | 0.716 | 0.534 | 0.421 | 0.506 | 0.872 | 0.471
CAACACAUCAAGCAAUCGGUC [Fam1B.1 aminoacylation ribozyme variant] | 0.946 | 0.797 | 0.767 | 0.749 | 1.22 | 0.76
AUUACCAUGGUCAUCGAGUGC [Fam2.1 aminoacylation ribozyme variant] | 1.17 | 1.12 | 1.35 | 1.38 | 0.948 | 1.47
CCACACAUCAAGCAAUCCGUC [Fam1B.1 aminoacylation ribozyme variant] | 1.1 | 1.21 | 1.09 | 0.977 | 0.79 | 0.861
CUGCUUCAAACAAUCGGUCUU [Fam1A.1 aminoacylation ribozyme variant] | 1.72 | 1.84 | 52 | 1.91 | 107 | 2.97
CCACACUUCAAGCAAUGGCUC [Fam1B.1 aminoacylation ribozyme variant] | 1.1 | 1.26 | 1.09 | 1.22 | 0.411 | 0.847
CCACACUUCACGCAAUCGGUA [Fam1B.1 aminoacylation ribozyme variant] | 1.16 | 1.41 | 1.31 | 0.914 | 0.338 | 0.528
CUACUUCAUACUAUCGGUCUG [Fam1A.1 aminoacylation ribozyme variant] | 0.937 | 0.862 | 0.667 | 0.741 | 1.05 | 0.791
